These are yes or no findings as the source states them, for the method shown. For some assays here: Binding calls can cover weak binding; strength is not graded here. Where a sequence is shown, tags or fusion partners need not be part of it. For some assays here: In cells and extracts the contact can be indirect.
Key:
[1] = target: T1, GST-hFasL(1-80) fusion protein (human) (UniProt P48023); assay: phage display library panning; GST-hFasL(1-80) covalently bound to epoxy magnetic beads (Dynabeads M-270); library of 288 human SH3 domains as pVIII fusions on phage, 6 x 10^9 PFU, 1.5 h at room temperature; washes with 0.15% or 0.5% Tween-20; bound clones sequenced; domains also found in the GST panning excluded; only the target purified
T1 sequence: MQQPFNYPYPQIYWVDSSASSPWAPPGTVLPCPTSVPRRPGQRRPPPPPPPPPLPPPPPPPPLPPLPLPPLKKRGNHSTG

By UniProt entry, the sequences of proteins in these tests, tags left out. Where a name states a change or a piece, a line headed by the entry shows the natural chain unless it says otherwise.
UniProt Q9BRR9: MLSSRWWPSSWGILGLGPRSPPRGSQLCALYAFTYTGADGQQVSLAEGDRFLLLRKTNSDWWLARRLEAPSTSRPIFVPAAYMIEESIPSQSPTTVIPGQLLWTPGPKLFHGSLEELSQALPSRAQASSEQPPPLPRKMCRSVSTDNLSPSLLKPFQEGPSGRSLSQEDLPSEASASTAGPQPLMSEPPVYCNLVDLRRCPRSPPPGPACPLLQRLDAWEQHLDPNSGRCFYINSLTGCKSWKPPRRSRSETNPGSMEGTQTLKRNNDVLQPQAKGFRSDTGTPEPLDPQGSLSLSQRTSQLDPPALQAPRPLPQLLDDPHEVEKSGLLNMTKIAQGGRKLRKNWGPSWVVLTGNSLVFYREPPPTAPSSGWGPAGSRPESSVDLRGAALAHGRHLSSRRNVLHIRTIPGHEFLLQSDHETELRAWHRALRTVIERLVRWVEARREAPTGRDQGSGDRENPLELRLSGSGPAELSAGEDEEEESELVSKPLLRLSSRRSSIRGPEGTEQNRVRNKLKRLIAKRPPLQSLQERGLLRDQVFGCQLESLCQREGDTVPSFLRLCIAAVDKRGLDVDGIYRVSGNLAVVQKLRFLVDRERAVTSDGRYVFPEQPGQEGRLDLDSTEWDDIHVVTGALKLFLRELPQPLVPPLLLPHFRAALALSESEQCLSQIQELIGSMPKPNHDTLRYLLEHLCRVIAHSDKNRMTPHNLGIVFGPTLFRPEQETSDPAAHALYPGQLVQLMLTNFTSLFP
UniProt P07948: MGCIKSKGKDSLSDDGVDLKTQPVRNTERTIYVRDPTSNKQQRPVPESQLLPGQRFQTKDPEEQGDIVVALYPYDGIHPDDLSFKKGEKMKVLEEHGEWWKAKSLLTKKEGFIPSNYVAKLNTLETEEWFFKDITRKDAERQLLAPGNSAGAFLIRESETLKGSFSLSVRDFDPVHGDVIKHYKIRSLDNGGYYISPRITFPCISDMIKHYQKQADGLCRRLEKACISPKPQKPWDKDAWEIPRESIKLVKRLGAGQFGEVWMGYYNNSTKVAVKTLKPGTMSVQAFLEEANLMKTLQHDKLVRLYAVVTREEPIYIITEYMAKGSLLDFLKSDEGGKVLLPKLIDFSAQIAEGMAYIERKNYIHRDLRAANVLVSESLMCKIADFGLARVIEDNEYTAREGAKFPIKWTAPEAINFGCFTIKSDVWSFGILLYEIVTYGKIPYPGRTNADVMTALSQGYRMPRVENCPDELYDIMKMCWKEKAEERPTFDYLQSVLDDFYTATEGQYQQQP
UniProt Q08881: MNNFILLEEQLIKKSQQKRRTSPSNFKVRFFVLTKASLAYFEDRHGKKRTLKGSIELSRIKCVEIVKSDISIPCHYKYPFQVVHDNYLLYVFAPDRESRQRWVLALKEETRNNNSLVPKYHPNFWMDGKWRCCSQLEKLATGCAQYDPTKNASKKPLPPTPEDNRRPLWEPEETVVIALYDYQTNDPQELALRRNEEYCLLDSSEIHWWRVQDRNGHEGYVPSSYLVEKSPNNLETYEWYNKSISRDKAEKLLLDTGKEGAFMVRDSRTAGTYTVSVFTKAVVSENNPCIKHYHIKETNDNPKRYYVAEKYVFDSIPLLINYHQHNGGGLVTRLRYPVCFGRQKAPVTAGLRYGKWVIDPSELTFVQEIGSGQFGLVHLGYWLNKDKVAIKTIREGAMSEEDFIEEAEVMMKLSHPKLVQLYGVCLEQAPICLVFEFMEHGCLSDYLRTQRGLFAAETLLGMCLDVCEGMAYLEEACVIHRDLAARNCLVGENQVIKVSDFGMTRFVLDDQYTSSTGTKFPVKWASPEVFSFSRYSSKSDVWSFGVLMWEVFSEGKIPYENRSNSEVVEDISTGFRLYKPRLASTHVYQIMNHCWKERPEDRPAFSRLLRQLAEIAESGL
UniProt O95049: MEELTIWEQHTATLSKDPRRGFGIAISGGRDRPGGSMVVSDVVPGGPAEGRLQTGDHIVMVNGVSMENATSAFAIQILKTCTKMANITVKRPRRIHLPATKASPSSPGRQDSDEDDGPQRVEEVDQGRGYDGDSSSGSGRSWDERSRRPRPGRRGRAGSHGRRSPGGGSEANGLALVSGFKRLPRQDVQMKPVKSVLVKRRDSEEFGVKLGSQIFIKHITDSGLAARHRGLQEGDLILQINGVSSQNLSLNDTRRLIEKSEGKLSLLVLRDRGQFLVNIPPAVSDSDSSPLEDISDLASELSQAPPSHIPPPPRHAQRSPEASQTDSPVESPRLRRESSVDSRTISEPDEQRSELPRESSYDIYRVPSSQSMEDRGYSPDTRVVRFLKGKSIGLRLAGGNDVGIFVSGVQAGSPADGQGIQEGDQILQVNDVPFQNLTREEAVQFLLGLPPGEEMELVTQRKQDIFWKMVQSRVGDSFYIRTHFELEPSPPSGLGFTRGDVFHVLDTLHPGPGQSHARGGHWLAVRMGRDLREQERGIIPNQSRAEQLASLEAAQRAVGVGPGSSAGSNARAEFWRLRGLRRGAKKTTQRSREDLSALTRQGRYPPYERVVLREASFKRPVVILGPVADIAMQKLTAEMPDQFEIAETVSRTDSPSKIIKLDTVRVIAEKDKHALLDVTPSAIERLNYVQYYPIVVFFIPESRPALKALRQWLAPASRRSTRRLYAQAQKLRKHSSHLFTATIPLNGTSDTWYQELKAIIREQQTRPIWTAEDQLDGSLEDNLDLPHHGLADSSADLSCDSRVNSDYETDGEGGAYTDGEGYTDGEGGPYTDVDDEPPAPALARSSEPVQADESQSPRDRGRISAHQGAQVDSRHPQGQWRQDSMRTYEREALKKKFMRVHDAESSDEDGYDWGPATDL
UniProt A6NJZ7: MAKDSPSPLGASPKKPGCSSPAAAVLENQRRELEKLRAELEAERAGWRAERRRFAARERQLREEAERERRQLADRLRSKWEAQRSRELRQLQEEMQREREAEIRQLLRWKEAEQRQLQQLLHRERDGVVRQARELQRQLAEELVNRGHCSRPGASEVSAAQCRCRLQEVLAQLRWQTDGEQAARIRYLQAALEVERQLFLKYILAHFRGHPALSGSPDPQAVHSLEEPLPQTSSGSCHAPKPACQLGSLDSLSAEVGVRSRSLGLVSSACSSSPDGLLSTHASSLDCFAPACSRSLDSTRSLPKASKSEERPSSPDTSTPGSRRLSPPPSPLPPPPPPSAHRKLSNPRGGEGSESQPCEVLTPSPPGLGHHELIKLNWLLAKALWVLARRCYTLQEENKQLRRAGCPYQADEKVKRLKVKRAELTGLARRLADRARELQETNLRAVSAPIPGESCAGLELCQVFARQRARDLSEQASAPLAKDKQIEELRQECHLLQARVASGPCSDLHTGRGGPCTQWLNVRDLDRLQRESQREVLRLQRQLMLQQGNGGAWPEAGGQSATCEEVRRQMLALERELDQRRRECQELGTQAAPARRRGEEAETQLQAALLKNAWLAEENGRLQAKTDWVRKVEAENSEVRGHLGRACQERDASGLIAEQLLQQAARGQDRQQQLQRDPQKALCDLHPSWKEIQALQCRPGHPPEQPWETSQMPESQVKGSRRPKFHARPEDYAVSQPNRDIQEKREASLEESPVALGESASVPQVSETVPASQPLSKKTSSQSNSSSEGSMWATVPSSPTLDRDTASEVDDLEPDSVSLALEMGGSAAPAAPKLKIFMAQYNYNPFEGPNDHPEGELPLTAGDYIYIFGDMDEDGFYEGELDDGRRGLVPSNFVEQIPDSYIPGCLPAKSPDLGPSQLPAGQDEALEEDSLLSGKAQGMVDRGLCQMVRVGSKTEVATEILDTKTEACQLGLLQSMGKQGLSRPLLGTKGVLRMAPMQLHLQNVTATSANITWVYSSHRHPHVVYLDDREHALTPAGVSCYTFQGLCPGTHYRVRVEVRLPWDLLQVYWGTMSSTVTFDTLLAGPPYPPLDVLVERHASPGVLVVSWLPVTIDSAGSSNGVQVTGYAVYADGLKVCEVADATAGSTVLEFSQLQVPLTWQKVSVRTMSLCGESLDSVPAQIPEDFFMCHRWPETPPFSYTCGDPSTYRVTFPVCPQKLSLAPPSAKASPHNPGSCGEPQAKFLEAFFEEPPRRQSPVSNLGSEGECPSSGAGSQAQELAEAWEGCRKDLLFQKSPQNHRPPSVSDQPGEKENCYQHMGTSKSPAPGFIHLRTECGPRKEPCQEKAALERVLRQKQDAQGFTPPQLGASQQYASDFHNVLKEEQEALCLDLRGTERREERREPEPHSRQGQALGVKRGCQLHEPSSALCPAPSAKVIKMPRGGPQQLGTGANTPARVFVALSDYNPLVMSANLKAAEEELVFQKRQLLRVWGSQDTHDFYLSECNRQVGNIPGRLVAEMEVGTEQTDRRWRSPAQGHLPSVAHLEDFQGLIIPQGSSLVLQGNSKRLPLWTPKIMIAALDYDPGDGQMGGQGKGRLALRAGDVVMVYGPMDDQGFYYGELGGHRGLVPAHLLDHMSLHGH
UniProt P14598: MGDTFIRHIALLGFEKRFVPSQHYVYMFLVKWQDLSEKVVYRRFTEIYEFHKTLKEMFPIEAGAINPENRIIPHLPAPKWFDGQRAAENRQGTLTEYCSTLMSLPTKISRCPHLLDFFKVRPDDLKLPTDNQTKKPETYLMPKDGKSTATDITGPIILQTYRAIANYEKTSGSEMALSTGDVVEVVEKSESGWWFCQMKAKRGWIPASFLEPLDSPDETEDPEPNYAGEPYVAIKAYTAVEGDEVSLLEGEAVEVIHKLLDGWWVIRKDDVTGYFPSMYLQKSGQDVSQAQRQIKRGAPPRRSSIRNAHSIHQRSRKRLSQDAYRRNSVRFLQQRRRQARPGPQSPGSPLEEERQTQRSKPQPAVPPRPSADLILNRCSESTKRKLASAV
UniProt P06241: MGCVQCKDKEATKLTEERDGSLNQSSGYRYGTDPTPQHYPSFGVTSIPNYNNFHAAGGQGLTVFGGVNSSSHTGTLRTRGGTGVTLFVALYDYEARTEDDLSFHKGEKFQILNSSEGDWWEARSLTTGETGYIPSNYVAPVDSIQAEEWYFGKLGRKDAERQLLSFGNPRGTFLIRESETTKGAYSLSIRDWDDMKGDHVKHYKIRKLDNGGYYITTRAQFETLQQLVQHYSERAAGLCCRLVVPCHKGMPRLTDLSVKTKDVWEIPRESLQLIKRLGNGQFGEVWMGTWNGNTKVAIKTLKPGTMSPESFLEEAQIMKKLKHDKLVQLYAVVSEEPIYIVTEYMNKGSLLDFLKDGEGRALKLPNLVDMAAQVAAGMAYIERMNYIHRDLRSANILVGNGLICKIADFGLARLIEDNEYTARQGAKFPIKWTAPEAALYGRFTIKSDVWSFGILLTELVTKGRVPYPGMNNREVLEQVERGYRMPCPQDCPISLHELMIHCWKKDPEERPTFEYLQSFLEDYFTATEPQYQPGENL
UniProt P08631: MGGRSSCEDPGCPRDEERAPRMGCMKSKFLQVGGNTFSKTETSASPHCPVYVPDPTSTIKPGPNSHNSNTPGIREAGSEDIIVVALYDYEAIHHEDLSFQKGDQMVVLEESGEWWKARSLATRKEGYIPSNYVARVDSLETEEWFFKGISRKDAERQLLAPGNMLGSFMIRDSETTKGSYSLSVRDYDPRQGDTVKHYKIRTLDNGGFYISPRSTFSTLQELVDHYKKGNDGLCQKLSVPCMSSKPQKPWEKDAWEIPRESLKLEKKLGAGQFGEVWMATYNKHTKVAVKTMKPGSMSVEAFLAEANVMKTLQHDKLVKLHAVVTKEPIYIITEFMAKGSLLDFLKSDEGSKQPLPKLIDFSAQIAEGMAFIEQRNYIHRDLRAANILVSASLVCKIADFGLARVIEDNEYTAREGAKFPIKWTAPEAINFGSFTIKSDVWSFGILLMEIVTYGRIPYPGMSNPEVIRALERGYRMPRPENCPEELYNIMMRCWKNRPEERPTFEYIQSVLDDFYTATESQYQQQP
UniProt Q8TE67: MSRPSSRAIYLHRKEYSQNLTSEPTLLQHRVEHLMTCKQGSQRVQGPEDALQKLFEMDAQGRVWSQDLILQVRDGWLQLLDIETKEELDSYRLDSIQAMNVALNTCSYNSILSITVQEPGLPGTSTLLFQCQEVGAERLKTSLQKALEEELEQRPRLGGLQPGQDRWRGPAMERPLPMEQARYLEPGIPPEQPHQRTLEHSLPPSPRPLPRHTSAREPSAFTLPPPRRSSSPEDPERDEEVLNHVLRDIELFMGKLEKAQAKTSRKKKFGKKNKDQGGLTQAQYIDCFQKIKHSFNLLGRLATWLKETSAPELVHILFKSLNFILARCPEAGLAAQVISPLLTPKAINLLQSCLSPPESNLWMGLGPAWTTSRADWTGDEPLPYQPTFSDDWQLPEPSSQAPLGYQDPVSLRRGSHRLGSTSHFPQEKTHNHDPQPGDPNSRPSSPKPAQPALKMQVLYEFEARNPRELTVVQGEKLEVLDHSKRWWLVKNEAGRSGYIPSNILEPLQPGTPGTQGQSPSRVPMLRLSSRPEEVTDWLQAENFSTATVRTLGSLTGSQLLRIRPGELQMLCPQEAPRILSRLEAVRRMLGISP

[2] = target: Glutathione S-transferase (GST); assay: pull-down; GST-hFasL(1-80) or GST with glutathione sepharose beads, overnight; NP-40 lysates of HEK 293 T cells transfected with HA-tagged sorting nexins; four washes with NP-40 lysis buffer; Western blot with anti-HA mAb 3F10; only the target purified

Question: With “SH3 domain of ARHGAP9, displayed on phage (from UniProt Q9BRR9) (domain or fragment)” as the molecule, how does the binding [1] read?
Answer: The binding was “binds”.

Question: For “SH3 domain of PI3K regulatory subunit alpha, displayed on phage (from UniProt P27986) (domain or fragment)”, which binding [1] is on record?
Answer: Its binding is “binds”.

Question: “SH3 domain of SH3 domain-containing protein 7A5, displayed on phage (from UniProt Q6ZN28) (domain or fragment)” was tested. Which binding [1] did it give?
Answer: Its binding is “binds”.

Question: For “SH3 domain of tyrosine protein kinase Btk, displayed on phage (from UniProt Q06187) (domain or fragment)”, which binding [1] is on record?
Answer: Its binding is “binds”.

Question: How did the binding [1] turn out when “SH3 domain of tyrosine protein kinase Tec, displayed on phage (from UniProt P42680) (domain or fragment)” was run?
Answer: The binding was “binds”.

Question: “SH3 domain of Fyn-binding protein, displayed on phage (human) (domain or fragment)” was tested. Which binding [1] did it give?
Answer: Its binding is “binds”.

Question: Which binding [1] does the source give for “SH3 domain of SAM domain-containing protein SAMSN-1, displayed on phage (from UniProt Q9NSI8) (domain or fragment)” here?
Answer: Its binding is “binds”.

Question: With “SH3 domain of tyrosine protein kinase Lyn, displayed on phage (from UniProt P07948) (domain or fragment)” as the molecule, how does the binding [1] read?
Answer: Its binding is “binds”.

Question: With “SH3 domain of voltage-dependent L-type calcium channel subunit beta-3, displayed on phage (from UniProt P54284) (domain or fragment)” as the molecule, how does the binding [1] read?
Answer: The binding was “binds”.

Question: “SH3 domain of tyrosine protein kinase Itk, displayed on phage (from UniProt Q08881) (domain or fragment)” was tested. Which binding [1] did it give?
Answer: The binding was “binds”.

Question: How did the binding [1] turn out when “SH3 domain of osteoclast-stimulating factor 1, displayed on phage (from UniProt Q92882) (domain or fragment)” was run?
Answer: Its binding is “binds”.

Question: “SH3 domain of tight junction protein ZO-3, displayed on phage (from UniProt O95049) (domain or fragment)” was tested. Which binding [1] did it give?
Answer: The binding was “binds”.

Question: “second SH3 domain of RIMS-binding protein 3C, displayed on phage (from UniProt A6NJZ7) (domain or fragment)” was tested. Which binding [1] did it give?
Answer: Its binding is “binds”.

Question: For “first SH3 domain of p47phox, displayed on phage (from UniProt P14598) (domain or fragment)”, which binding [1] is on record?
Answer: Its binding is “binds”.

Question: For “second SH3 domain of intersectin 2, displayed on phage (from UniProt Q9NZM3) (domain or fragment)”, which binding [1] is on record?
Answer: Its binding is “binds”.

Question: For “SH3 domain of sorting nexin 9, displayed on phage (from UniProt Q9Y5X1) (domain or fragment)”, which binding [1] is on record?
Answer: The binding was “binds”.

Question: How did the binding [1] turn out when “SH3 domain of sorting nexin 33, displayed on phage (from UniProt Q8WV41) (domain or fragment)” was run?
Answer: The binding was “binds”.

Question: With “SH3 domain of tyrosine protein kinase Fyn, displayed on phage (from UniProt P06241) (domain or fragment)” as the molecule, how does the binding [1] read?
Answer: The binding was “binds”.

Question: Which binding [1] does the source give for “SH3 domain of tyrosine protein kinase Hck, displayed on phage (from UniProt P08631) (domain or fragment)” here?
Answer: Its binding is “binds”.

Question: Which binding [1] does the source give for “SH3 domain of endophilin-A3, displayed on phage (from UniProt Q99963) (domain or fragment)” here?
Answer: Its binding is “binds”.

Question: Which binding [1] does the source give for “SH3 domain of SLIT-ROBO Rho GAP 2, displayed on phage (from UniProt O75044) (domain or fragment)” here?
Answer: Its binding is “binds”.

Question: “SH3 domain of CD2BP1, displayed on phage (human) (domain or fragment)” was tested. Which binding [1] did it give?
Answer: Its binding is “binds”.

Question: With “second SH3 domain of Nck1, displayed on phage (from UniProt P16333) (domain or fragment)” as the molecule, how does the binding [1] read?
Answer: Its binding is “binds”.

Question: Which binding [1] does the source give for “SH3 domain of SLIT-ROBO Rho GAP 1, displayed on phage (from UniProt Q7Z6B7) (domain or fragment)” here?
Answer: The binding was “binds”.

Question: Which binding [1] does the source give for “second SH3 domain of Nck2, displayed on phage (from UniProt O43639) (domain or fragment)” here?
Answer: The binding was “binds”.

Question: How did the binding [1] turn out when “SH3 domain of tyrosine protein kinase Yes, displayed on phage (from UniProt P07947) (domain or fragment)” was run?
Answer: Its binding is “binds”.

Question: For “SH3 domain of dedicator of cytokinesis protein 4, displayed on phage (from UniProt Q8N1I0) (domain or fragment)”, which binding [1] is on record?
Answer: The binding was “binds”.

Question: Which binding [1] does the source give for “SH3 domain of disks large homology 2, displayed on phage (from UniProt Q15700) (domain or fragment)” here?
Answer: The binding was “binds”.

Question: How did the binding [1] turn out when “SH3 domain of EGFR kinase substrate 8-like protein 3, displayed on phage (from UniProt Q8TE67) (domain or fragment)” was run?
Answer: Its binding is “binds”.

Question: “SH3 domain of Myosin XV, displayed on phage (from UniProt Q9UKN7) (domain or fragment)” was tested. Which binding [1] did it give?
Answer: Its binding is “binds”.

Question: For “first SH3 domain of kalirin, displayed on phage (from UniProt O60229) (domain or fragment)”, which binding [1] is on record?
Answer: Its binding is “binds”.

Question: How did the binding [1] turn out when “SH3 domain of Src kinase-associated phosphoprotein 2, displayed on phage (from UniProt O75563) (domain or fragment)” was run?
Answer: The binding was “binds”.

Question: How did the binding [1] turn out when “fourth SH3 domain of dynamin-binding protein, displayed on phage (from UniProt Q6XZF7) (domain or fragment)” was run?
Answer: The binding was “binds”.

Question: For “SH3 domain of spectrin alpha chain, displayed on phage (from UniProt P02549) (domain or fragment)”, which binding [1] is on record?
Answer: Its binding is “binds”.

B1: HA-tagged full length SNX33 (protein, UniProt Q8WV41 1-574)
chain: MALKGRALYDFHSENKEEISIQQDEDLVIFSETSLDGWLQGQNSRGETGLFPASYVEIVRSGISTNHADYSSSPAGSPGAQVSLYNSPSVASPARSGGGSGFLSNQGSFEEDDDDDWDDWDDGCTVVEEPRAGGLGTNGHPPLNLSYPGAYPSQHMAFRPKPPLERQDSLASAKRGSVVGRNLNRFSCFVRSGVEAFILGDVPMMAKIAETYSIEMGPRGPQWKANPHPFACSVEDPTKQTKFKGIKSYISYKLTPTHAASPVYRRYKHFDWLYNRLLHKFTVISVPHLPEKQATGRFEEDFIEKRKRRLILWMDHMTSHPVLSQYEGFQHFLSCLDDKQWKMGKRRAEKDEMVGASFLLTFQIPTEHQDLQDVEDRVDTFKAFSKKMDDSVLQLSTVASELVRKHVGGFRKEFQKLGSAFQAISHSFQMDPPFCSEALNSAISHTGRTYEAIGEMFAEQPKNDLFQMLDTLSLYQGLLSNFPDIIHLQKGAFAKVKESQRMSDEGRMVQDEADGIRRRCRVVGFALQAEMNHFHQRRELDFKHMMQNYLRQQILFYQRVGQQLEKTLRMYDNL
Question: How did the binding [2] turn out when B1 was run?
Answer: The binding was “no binding”.

— article PMC2763855
